No constants are given. Whether binding was seen depends on the method and setting. For some of these results: A result given as binding can be weak or reduced; the word gives no strength. For some of these results: Sequences can lack the tags named with a protein. For some of these results: Binding seen in cells or lysates may run through a third protein.
How the values were obtained:
[1] = target: Myc-tagged GP73 mutant WT2-K2E (human) (UniProt Q8NBJ4); experiment: co-IP; HEK293 co-transfected with Flag-MAVS (2 μg) and Myc-tagged GP73 or mutants (3 μg) for 24 h; immunoprecipitated with anti-Myc; WB (S3B Fig)
[2] = target: Myc-tagged GP73 mutant WT2-ΔK2 (human) (UniProt Q8NBJ4); experiment: as above
GST-GP73 (aa36-401) = target: T1, GST-GP73 (aa36-401) (human, UniProt Q8NBJ4 36-401); experiment: pull-down; purified MBP, MBP-M11 or MBP-T6CC (20 μg) with 10 μg GST or 20 μg GST-GP73 overnight at 4°C; WB (S4A Fig); both purified
T1 construct: also called recombinant GST-GP73; GST-fused GP73; source: E. coli BL21, purified (glutathione Sepharose 4B)
T1 sequence (looked up): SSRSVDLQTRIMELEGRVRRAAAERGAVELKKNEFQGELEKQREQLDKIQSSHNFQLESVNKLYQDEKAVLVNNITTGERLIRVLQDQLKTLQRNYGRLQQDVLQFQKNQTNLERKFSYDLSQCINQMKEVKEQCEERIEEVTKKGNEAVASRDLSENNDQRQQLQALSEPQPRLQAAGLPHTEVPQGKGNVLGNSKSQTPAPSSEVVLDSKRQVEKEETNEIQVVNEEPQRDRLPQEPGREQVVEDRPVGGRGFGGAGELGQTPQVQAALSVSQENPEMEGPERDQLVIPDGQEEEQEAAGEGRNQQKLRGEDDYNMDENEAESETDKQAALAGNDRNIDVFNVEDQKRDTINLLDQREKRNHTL

Amino acid sequences for entries named in this document (tags omitted). A change or cut given only in a name is not applied to a line headed by its entry.
UniProt Q7Z434: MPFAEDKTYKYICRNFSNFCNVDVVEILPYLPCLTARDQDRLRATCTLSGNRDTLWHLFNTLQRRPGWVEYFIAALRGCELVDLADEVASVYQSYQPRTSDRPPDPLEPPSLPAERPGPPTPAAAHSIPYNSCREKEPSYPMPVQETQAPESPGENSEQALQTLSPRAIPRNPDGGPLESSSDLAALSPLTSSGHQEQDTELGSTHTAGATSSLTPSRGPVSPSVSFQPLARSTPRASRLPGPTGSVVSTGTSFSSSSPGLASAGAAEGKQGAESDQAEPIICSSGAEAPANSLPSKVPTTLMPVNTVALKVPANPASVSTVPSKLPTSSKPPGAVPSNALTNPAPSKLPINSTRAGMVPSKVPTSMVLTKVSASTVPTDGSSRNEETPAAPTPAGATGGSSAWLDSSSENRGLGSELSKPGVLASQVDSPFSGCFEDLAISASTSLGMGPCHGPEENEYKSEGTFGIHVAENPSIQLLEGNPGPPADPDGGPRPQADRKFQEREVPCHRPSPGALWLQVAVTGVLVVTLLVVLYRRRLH

FL MAVS ΔTIM3 = FL MAVS ΔTIM3 (UniProt Q7Z434); experiment: co-IP; HEK293 co-transfected with GP73 plasmid and Flag-tagged (or indicated) plasmids for 24 h; lysis in 50 mM Tris-HCl, 150 mM NaCl, 1% Triton X-100, 1 mM EDTA, 10% glycerol, pH 7.4; immunoprecipitated with anti-Flag (or IgG), washed with 300 mM NaCl buffer, WB; Fig 3B, 3C, 4C-F, S4B (for Fig 4C-F the antibodies are only 'indicated')
M11 MAVS ΔTIM3 = M11 MAVS ΔTIM3 (UniProt Q7Z434); experiment: as above
M12 MAVS ΔTIM3 = M12 MAVS ΔTIM3 (UniProt Q7Z434); experiment: as above
[3] = target: MAVS in Huh7-MAVSR cells (MAVS-C508R, MAVSR) (UniProt Q7Z434); experiment: co-IP; Huh7-MAVSR cells infected with HCV (MOI = 2) for the indicated days; immunoprecipitation and WB with antibodies against indicated proteins (Fig 3E)

“Flag-MAVS (mitochondrial antiviral signaling protein), full length (from UniProt Q7Z434 1-540)” was tested, and the binding [1] was “binds” and the binding [2] was “binds”.

“MBP-T6CC (TRAF6 coiled-coil domain) (domain or fragment)” was tested, and the binding (GST-GP73 (aa36-401)) was “binds”.

B1: HA-GP73 (Golgi protein 73) (protein, UniProt Q8NBJ4 1-401)
chain: MMGLGNGRRSMKSPPLVLAALVACIIVLGFNYWIASSRSVDLQTRIMELEGRVRRAAAERGAVELKKNEFQGELEKQREQLDKIQSSHNFQLESVNKLYQDEKAVLVNNITTGERLIRVLQDQLKTLQRNYGRLQQDVLQFQKNQTNLERKFSYDLSQCINQMKEVKEQCEERIEEVTKKGNEAVASRDLSENNDQRQQLQALSEPQPRLQAAGLPHTEVPQGKGNVLGNSKSQTPAPSSEVVLDSKRQVEKEETNEIQVVNEEPQRDRLPQEPGREQVVEDRPVGGRGFGGAGELGQTPQVQAALSVSQENPEMEGPERDQLVIPDGQEEEQEAAGEGRNQQKLRGEDDYNMDENEAESETDKQAALAGNDRNIDVFNVEDQKRDTINLLDQREKRNHTL
With B1 the binding (FL MAVS ΔTIM3) was “binds weakly”, the binding (M11 MAVS ΔTIM3) was “no binding” and the binding (M12 MAVS ΔTIM3) was “binds weakly”.

B2: endogenous GP73 (Huh7-MAVSR) (protein, UniProt Q8NBJ4 1-401)
chain: MMGLGNGRRSMKSPPLVLAALVACIIVLGFNYWIASSRSVDLQTRIMELEGRVRRAAAERGAVELKKNEFQGELEKQREQLDKIQSSHNFQLESVNKLYQDEKAVLVNNITTGERLIRVLQDQLKTLQRNYGRLQQDVLQFQKNQTNLERKFSYDLSQCINQMKEVKEQCEERIEEVTKKGNEAVASRDLSENNDQRQQLQALSEPQPRLQAAGLPHTEVPQGKGNVLGNSKSQTPAPSSEVVLDSKRQVEKEETNEIQVVNEEPQRDRLPQEPGREQVVEDRPVGGRGFGGAGELGQTPQVQAALSVSQENPEMEGPERDQLVIPDGQEEEQEAAGEGRNQQKLRGEDDYNMDENEAESETDKQAALAGNDRNIDVFNVEDQKRDTINLLDQREKRNHTL
In the case of B2, the binding [3] is reported as “binds”.
